Experimental data as given in PubChem BioAssay AID652016 (National Center for Advancing Translational Sciences (NCATS), 2013).
The shares of active, inactive and inconclusive entries below differ from those in the screen. The call rests on the fitted dose curve; in most records, active means well fitted inhibition curve with a large enough effect; inconclusive means small, poorly fitted or top-dose-only effect; inactive means flat fitted curve, though single readings scatter. A potency beside an inconclusive call is a rough fit, not a confirmed value.

Amino acid sequences for entries named in this document (tags omitted).
UniProt P08659, whole entry, looked up: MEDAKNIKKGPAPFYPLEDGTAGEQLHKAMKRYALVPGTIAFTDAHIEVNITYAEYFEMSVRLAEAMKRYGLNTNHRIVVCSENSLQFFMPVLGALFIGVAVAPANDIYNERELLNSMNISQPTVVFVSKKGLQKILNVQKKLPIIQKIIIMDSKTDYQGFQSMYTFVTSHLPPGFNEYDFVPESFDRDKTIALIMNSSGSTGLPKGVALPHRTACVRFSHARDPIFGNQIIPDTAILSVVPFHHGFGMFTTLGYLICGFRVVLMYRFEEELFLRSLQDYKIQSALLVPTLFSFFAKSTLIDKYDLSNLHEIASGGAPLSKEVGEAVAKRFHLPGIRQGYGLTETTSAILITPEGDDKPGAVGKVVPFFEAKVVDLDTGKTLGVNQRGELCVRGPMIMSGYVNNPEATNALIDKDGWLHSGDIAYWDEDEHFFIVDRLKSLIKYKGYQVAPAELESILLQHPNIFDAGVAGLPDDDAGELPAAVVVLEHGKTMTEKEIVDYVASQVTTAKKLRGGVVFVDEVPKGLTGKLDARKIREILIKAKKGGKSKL

Molecular target: Luciferin 4-monooxygenase (Photinus pyralis) (UniProt P08659)
Assay: qHTS Assay for Inhibitors of Firefly Luciferase from the GSK Published Protein Kinase Inhibitor Set
Details: purified firefly luciferase, luminescence inhibition
Source text: FLuc (firefly luciferase) is the prototypical bioluminescent reporter gene from Photinus pyralis.[1] The enzyme catalyzes the oxidation luciferin via luciferin-AMP to produce light. FLuc is used in cell-based reporter gene-based assays for screening small molecule chemical libraries. However, small molecule luciferase inhibitors present in most large chemical libraries are often enriched in the output of high throughput screens using this reporter sometimes complicating interpretation and candidate selection.
RLuc is a bioluminescent reporter gene luciferase from Renilla reniformis, also known as the sea pansy. RLuc uses the luciferin substrate coelenterazine. […]
Three microliters containing firefly luciferase substrates in buffer (final concentrations: 50mM Tris acetate, pH 7.5, 10mM Mg acetate, 0.01% Tween-20, 0.05% BSA, 10uM D-luciferin, and 10uM ATP) are dispensed into each well of a Greiner white, solid-bottom 1536-well format plate using a flying reagent dispenser (FRD). These assay plates were then treated with 23nL of compound or DMSO using a Kalypsys pin tool, which allows for delivery of a 7-point interplate titration of each compound to the assay plates (quantitative HTS), with final compound concentrations ranging from approximately 60uM to 300pM. […] Luciferase activity was then measured using an Envision plate reader (PerkinElmer), with an average incubation time of 5 min.
Potency means the concentration at half of the fitted maximal effect.

Structure (SMILES): CNC(=O)Oc1cc(C)c(C=Cc2cncc(C(=O)NC)c2)c(C)c1
- Potency: inconclusive: 29.1 µM [inhibitor, partial curve, poor fit]
